# Library screening results

Sequences of proteins named here, by UniProt entry; tags and fusion partners are left off.
UniProt E9BF75, entry or part of it: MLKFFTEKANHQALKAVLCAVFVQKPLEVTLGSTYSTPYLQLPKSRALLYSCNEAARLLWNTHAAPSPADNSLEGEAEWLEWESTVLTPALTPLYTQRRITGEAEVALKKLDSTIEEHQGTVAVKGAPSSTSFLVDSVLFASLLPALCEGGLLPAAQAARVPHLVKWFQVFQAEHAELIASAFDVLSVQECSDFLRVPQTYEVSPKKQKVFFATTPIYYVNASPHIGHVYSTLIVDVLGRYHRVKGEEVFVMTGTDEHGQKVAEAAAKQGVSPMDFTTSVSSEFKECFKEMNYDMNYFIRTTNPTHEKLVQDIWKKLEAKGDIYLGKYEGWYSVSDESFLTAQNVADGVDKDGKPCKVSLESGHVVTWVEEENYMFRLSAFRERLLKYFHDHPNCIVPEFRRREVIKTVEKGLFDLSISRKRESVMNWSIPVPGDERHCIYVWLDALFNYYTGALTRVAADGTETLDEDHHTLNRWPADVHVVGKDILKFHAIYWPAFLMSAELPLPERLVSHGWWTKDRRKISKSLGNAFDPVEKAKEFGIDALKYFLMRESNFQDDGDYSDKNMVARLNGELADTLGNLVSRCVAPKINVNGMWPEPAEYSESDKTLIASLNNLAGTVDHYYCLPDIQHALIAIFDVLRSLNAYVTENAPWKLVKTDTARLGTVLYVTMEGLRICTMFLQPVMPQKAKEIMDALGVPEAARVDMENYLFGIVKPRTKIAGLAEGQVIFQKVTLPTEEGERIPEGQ

Source: ChEMBL document CHEMBL3988442, “University of Dundee, Small-Polar-MMV Screening Library” (2021).

Mtb heat-shock: 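Assay on Mycobacterium tuberculosis, filed only as a heat shock assay from Cornell; the read-out is not stated. The concentration is filed as 10 mM, unlikely as a test dose, so the dose is not known. Higher reads as stronger inhibition (inferred: compounds with an IC50 in retests scored well above the rest). Of about 69,000 compounds tested this way, about 930 (1.4%) reached 50% or more in at least one test.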
LdMetRS: 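Primary screen of methionyl-tRNA synthetase; the read-out is not stated. Target: Methionyl-tRNA synthetase (putative), Leishmania donovani (UniProt E9BF75). The test concentration is not given. Values are per cent inhibition. About 68,000 compounds were tested under these conditions; 0.035% (about 24) showed 50% or more at least once.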
Mtb growth Cornell: 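Whole-cell assay for inhibitors of Mycobacterium tuberculosis growth, labelled Cornell in the record; the read-out is not stated. The concentration is filed as 10 mM, unlikely as a test dose, so the dose is not known. The record gives no direction; compounds strong in two other growth screens of this library score well above the rest, so higher reads as stronger inhibition. Size under these conditions: about 53,000 compounds, about 900 of them at 50% or above in at least one test.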

Results are percentages, as filed. How 0% and 100% were set is not recorded. Most values in the screen are low, and negative values occur. The compounds are a random part of those screened. A dash means the value is not listed here; it may have been measured.

| Compound | Mtb heat-shock | LdMetRS | Mtb growth Cornell |
|---|---|---|---|
| `O=C(O)C(F)(F)F.[H][C@@]12CCN(CC3CC3)[C@@]1([H])CCN2C(=O)c1ccc(C#N)cc1` | 11.19% | - | 5.464% |
| `CNc1nc(C(=O)NCC2CCOc3ccccc3C2)cs1` (configuration not stated) | -13.93% | 5.167% | -10.31% |
| `Cc1ccc(S(=O)(=O)Nc2cnn(C3CCOCC3)c2)cc1C` | 13.15% | 8.451% | 6.102% |
| `O=C(O)C(F)(F)F.[H][C@@]12CCN(C(=O)c3cccnc3OC)C[C@@]1([H])O[C@@H](c1nnc(C)[nH]1)C2` | -43.18% | - | 17.88% |
| `COCCNc1ccc(CC2CCCN(C3CCOCC3)C2)nn1` (configuration not stated) | -6.118% | 14.06% | 19.42% |
| `CCOCC1CN(S(=O)(=O)CC)Cc2cnn(CC3CC3)c21` (configuration not stated) | - | 11.88% | - |
| `CN(C)c1nc(N)nc(CN2CCCC2c2cccs2)n1` (configuration not stated) | 97.97% | 13.4% | 8.245% |
| `Cc1cccc(CN2CCC3(CC2)CN(c2cccnc2)C(=O)CO3)n1` | - | 12.4% | - |
| `COCCn1cc2c(n1)C(CNCc1nccs1)OCC2` (configuration not stated) | - | 16.24% | - |
| `Clc1cccc(C(CNCc2ccccn2)N2CCOCC2)c1` (configuration not stated) | 27.68% | 2.611% | -76.73% |
| `Clc1ccc(OCCCN2CCN(c3cnccn3)CC2)cc1` | 25.13% | 14.98% | 28.85% |
| `Cc1nc(N2CCOCC2)nc2c1CCN(Cc1ccsc1)CC2` | - | 7.904% | - |
| `Cc1nonc1CC(=O)N1CCC2(CCCN(C3CCOCC3)C2=O)C1` (configuration not stated) | -3.821% | 9.202% | 8.546% |
| `Fc1ccc(CN2CCc3ncnc(C4CCOC4)c3CC2)cc1` (configuration not stated) | - | 9.446% | - |
| `CCOc1ccc(Cl)c(C(=O)N2CCCN(CC(N)=O)CC2)n1` | -4.481% | 20.23% | -46.64% |
| `c1cc(CN2CC[C@@H]3CN(c4cncnc4)C[C@@H]3C2)ccn1` | - | 12.9% | - |
| `CN(C)C(=O)c1cccc(CN2CCOC(Cn3cccn3)C2)c1` (configuration not stated) | -9.057% | 17.38% | -16.97% |
| `CCn1ccnc1CN1CCC(N(C)Cc2ncc(C)o2)C1` (configuration not stated) | -6.713% | 9.091% | - |
| `O=C(NC1CC2(CCN(CCO)CC2)c2ccccc21)c1ccno1.O=C(O)C(F)(F)F` (configuration not stated) | -26.72% | - | -10.25% |
| `CCOc1cc(C(=O)n2cc(C)cn2)cc(OCC)c1OCC` | -21.68% | 9.832% | 12.44% |
| `O=c1[nH]c2csnc2c(=O)n1Cc1ccc(Br)cc1` | -1.186% | 18.23% | 18.93% |
| `O=C1NCCCCC1Sc1ccc(F)c(F)c1` (configuration not stated) | 5.002% | 13.87% | 3.057% |
| `CC(C)n1cc(CN2CCCN(C(=O)C(C)n3cncn3)CC2)cn1` (configuration not stated) | -7.504% | 14.44% | -24.26% |
| `CC(=O)N1CCCC(c2cccc(-n3ccnc3)n2)C1` (configuration not stated) | -20.38% | 10.59% | - |
| `O=C(Nc1ccc(I)cc1C(=O)NCCN1CCOCC1)c1cccs1` | 8.5% | 16.02% | - |
| `Cc1ccc(NCc2ccco2)cc1N1CCOC1=O` | -3.463% | 12.43% | - |
| `CCc1cc(N2CCC(n3cc(C(=O)NCC(C)C)nn3)CC2)ncn1` | 7.459% | 16.32% | 7.934% |
| `COc1cccc(CN2CCC3(CCN(C(=O)[C@H]4CCCO4)CC3)C2)c1.O=C(O)C(F)(F)F` | -2.359% | - | 9.131% |
| `CS(=O)(=O)NCc1cncc2c1CCN(C(=O)N1CCCC1)C2` | - | 4.11% | - |
| `O=S(=O)(Nc1cn[nH]c1)c1ccc(Br)c(F)c1` | -37.26% | 21.27% | - |
| `O=C(NCc1ccc(-n2cncn2)nc1)c1cnccn1` | 14.5% | 10.16% | -12.8% |
| `COc1ccc(N)c(N2CCN(C(C)=O)CC2)n1` | -7.223% | 7.143% | 5.852% |
| `CN1CC(C(=O)Nc2ccc(OCC(F)(F)C(F)F)nc2)CC1=O` (configuration not stated) | -19.76% | 17.78% | 21.54% |
| `OCC1CCCN1c1cc(NCCc2ccccn2)ncn1` (configuration not stated) | 9.53% | 9.172% | 10.96% |
| `Cc1cccc(CN2CCCC23CCNC3)n1` (configuration not stated) | -35.14% | 2.241% | -12.87% |
| `Cc1nc2c(N3CCN(Cc4ccccc4)CC3)nc(N)nc2n1C` | 16.05% | 11.21% | 24.17% |
| `CC(C)CN1CCS(=O)(=O)[C@@H]2CCN(S(=O)(=O)N(C)C)CC[C@@H]21` | - | 7.266% | - |
| `Cc1oncc1NS(=O)(=O)c1c[nH]c2ncccc12` | -5.687% | 10.26% | - |
| `CCNC(=O)[C@@H]1C[C@H](N)CN1C(=O)CCc1ccc(C)c(C)c1` | -3.754% | 6.704% | 12.27% |
| `Cc1cc(C)n(CC2CCCN2C(=O)CCc2ccncc2)n1` (configuration not stated) | -10.85% | 16.39% | - |
| `COc1cc2c(cc1CN1CCc3sccc3C1C)OCCO2` (configuration not stated) | 6.337% | 7.447% | 9.482% |
| `COc1cccc2c1N(C(=O)c1ccc(C)nc1)CCC2` | 0.562% | 6.211% | 20.77% |
| `COCCN1CCN(CC2CCCCO2)CC1` (configuration not stated) | -29.45% | 3.714% | -72.22% |
| `CNC(=O)CNC(=O)Nc1ccc(Br)c(F)c1` | -11.66% | 6.283% | 5.933% |
| `CC(=O)N1CCCn2nc(CNC(=O)N3CCCCC3)cc2C1` | 0.3454% | 5.199% | -23.07% |
| `CCNc1ncnc2c1CN(C1CCCNCC1)C(=O)CN2C` (configuration not stated) | -26.6% | 11.43% | - |
| `O=C(Nc1ccc(CN2CCOCC2)cc1)c1nccn2ccnc12` | -42.54% | -0.8357% | - |
| `CC(C)NC(=O)c1cc(-c2ccc(S(C)(=O)=O)cc2)nc2c1cnn2C` | -4.541% | 9.143% | - |
| `Cc1ccc(CN2Cc3nnn(C)c3C(COCc3ccccc3)C2)o1` (configuration not stated) | - | 3.268% | - |
| `COc1ccc2c(c1)OC1(CCN(Cc3ccccc3C)CC1)CC2=O` | 17.48% | 9.722% | -9.144% |
| `NC(=O)CSc1ccccc1NC(=O)C1CCCC1` | -0.3098% | 12.27% | -8.968% |
| `Cc1ccsc1[C@@H]1CCN(C(=O)CCC(=O)c2ccccc2)C[C@H]1O` | -24.71% | 10.75% | 12.18% |
| `CCN1CCC(CC(=O)N2CCCCC2CCn2cccn2)CC1` (configuration not stated) | -28% | 2.466% | - |
| `Cc1cc(C(F)(F)F)nc(CCNc2nc(C)nc3sccc23)n1` | -10.24% | -1.023% | -16.11% |
| `CSCC(=O)N1CCOC(c2nc(C(C)(C)C)n[nH]2)C1` (configuration not stated) | -5.682% | 14.4% | 30.67% |
| `O=C(CCc1nc2cccnc2[nH]1)NCc1cccnc1` | -27.26% | 12.03% | - |
| `Cc1nnc2n1CCN(C(=O)c1cc(Cl)c(Cl)n1C)C2` | 3.084% | 13.27% | - |
| `CCc1ccc(S(=O)(=O)N2CCN(CCn3ccnc3)CC2)cc1` | 5.775% | 12.36% | 5.716% |
| `CC(CN1CCOC1=O)NC(=O)c1ccccc1Oc1ccccc1` (configuration not stated) | 0.4938% | 10.3% | -30.48% |
| `COCCN1C[C@H]2CCC[C@@H](CNc3ncccn3)[C@H]2C1` | - | 12.89% | - |
| `COc1ccc(OC)c(C(O)CNC(=O)Nc2cc(C)nn2C)c1` (configuration not stated) | 4.18% | 12.63% | - |
| `CCc1ncc2c(n1)CN(c1nccc(C3CCCC3)n1)C2` | 16.48% | 26.39% | 19.93% |

Repeated from the top, 6 entries:

| Compound | Mtb heat-shock | LdMetRS | Mtb growth Cornell |
|---|---|---|---|
| `O=C(O)C(F)(F)F.[H][C@@]12CCN(CC3CC3)[C@@]1([H])CCN2C(=O)c1ccc(C#N)cc1` | 11.19% | - | 5.464% |
| `CNc1nc(C(=O)NCC2CCOc3ccccc3C2)cs1` (configuration not stated) | -13.93% | 5.167% | -10.31% |
| `Cc1ccc(S(=O)(=O)Nc2cnn(C3CCOCC3)c2)cc1C` | 13.15% | 8.451% | 6.102% |
| `O=C(O)C(F)(F)F.[H][C@@]12CCN(C(=O)c3cccnc3OC)C[C@@]1([H])O[C@@H](c1nnc(C)[nH]1)C2` | -43.18% | - | 17.88% |
| `COCCNc1ccc(CC2CCCN(C3CCOCC3)C2)nn1` (configuration not stated) | -6.118% | 14.06% | 19.42% |
| `CCOCC1CN(S(=O)(=O)CC)Cc2cnn(CC3CC3)c21` (configuration not stated) | - | 11.88% | - |